The other results are listed elsewhere or left out. Most entries show no effect beyond the scatter of the controls.
These targets were tested with CN[C@@H]1C[C@H]2O[C@@](C)([C@@H]1OC)n1c3ccccc3c3c4c(c5c6ccccc6n2c5c31)C(=O)NC4 [staurosporine] (assay: log2 fold change of tryptic peptide abundance, ligand vs vehicle (limited proteolysis) (log2 ratio); higher = more trypsin-susceptible (destabilized)). Details: ligand concentration: 20 uM; sample: mouse liver crude lysate; replicate design: treated separately.

Chains of the proteins cited; added tags and fusions are not shown. Lines headed by an entry give the natural chain unless they say otherwise; changes in a name come on top.
UniProt Q8CI71: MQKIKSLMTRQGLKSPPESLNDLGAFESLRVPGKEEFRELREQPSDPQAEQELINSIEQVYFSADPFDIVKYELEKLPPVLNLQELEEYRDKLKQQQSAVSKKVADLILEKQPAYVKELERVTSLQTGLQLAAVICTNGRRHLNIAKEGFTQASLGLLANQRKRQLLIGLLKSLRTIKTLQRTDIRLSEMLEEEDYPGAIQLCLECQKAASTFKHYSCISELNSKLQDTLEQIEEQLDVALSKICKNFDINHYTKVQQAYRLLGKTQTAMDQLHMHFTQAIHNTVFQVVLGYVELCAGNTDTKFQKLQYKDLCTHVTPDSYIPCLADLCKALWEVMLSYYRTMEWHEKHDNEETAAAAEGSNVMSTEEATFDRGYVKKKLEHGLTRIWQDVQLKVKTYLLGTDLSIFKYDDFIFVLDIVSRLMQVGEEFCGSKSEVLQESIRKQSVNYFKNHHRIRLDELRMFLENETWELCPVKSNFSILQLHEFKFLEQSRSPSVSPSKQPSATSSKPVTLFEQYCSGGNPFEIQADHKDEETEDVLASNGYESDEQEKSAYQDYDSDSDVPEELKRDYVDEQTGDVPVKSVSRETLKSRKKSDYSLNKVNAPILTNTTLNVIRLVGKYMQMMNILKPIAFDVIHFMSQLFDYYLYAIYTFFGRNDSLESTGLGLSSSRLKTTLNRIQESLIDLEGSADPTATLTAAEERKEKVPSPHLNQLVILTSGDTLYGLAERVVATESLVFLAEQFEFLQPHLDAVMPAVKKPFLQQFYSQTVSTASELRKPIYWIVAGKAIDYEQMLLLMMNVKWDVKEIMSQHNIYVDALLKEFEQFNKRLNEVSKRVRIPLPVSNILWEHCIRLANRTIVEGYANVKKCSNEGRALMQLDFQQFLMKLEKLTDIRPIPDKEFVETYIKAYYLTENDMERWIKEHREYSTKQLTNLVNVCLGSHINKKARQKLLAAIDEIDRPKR
UniProt Q8K0U4: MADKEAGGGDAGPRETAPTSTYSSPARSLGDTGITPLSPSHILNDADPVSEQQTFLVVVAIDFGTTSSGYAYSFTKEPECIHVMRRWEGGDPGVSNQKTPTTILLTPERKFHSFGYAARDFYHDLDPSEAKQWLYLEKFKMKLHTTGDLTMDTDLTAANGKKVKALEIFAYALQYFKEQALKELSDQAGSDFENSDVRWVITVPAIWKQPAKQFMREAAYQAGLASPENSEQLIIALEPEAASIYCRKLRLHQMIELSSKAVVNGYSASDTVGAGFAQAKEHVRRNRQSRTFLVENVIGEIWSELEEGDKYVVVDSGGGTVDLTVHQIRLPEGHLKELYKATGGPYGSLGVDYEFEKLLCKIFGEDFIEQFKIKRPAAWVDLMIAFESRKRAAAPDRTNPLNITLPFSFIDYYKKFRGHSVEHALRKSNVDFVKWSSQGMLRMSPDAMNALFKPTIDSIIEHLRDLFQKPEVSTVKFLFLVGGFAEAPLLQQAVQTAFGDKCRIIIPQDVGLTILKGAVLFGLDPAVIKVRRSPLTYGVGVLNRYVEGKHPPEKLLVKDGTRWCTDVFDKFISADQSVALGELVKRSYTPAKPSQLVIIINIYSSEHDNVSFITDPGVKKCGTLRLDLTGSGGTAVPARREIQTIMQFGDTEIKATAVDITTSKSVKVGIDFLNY
UniProt Q8CFD4: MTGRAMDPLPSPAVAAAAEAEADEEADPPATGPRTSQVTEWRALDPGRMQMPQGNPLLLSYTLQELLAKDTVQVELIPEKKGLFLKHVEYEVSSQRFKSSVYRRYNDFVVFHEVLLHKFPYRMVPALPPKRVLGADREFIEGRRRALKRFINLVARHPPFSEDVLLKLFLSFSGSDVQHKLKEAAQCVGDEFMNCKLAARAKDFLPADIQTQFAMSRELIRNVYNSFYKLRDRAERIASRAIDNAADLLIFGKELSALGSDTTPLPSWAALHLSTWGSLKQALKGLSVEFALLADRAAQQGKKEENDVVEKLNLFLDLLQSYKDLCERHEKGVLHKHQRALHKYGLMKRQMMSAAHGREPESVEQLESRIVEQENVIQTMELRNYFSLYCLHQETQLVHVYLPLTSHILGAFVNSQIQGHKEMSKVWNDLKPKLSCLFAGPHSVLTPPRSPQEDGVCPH
UniProt Q8JZZ6: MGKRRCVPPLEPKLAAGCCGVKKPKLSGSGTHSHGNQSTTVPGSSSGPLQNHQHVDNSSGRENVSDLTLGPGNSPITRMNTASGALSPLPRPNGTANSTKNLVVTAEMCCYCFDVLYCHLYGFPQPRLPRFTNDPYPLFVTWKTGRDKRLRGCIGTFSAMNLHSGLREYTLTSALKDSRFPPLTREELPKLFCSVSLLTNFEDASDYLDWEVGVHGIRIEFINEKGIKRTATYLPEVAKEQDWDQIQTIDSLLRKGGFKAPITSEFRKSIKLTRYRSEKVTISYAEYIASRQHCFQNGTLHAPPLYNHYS
UniProt Q8CHI8, whole entry: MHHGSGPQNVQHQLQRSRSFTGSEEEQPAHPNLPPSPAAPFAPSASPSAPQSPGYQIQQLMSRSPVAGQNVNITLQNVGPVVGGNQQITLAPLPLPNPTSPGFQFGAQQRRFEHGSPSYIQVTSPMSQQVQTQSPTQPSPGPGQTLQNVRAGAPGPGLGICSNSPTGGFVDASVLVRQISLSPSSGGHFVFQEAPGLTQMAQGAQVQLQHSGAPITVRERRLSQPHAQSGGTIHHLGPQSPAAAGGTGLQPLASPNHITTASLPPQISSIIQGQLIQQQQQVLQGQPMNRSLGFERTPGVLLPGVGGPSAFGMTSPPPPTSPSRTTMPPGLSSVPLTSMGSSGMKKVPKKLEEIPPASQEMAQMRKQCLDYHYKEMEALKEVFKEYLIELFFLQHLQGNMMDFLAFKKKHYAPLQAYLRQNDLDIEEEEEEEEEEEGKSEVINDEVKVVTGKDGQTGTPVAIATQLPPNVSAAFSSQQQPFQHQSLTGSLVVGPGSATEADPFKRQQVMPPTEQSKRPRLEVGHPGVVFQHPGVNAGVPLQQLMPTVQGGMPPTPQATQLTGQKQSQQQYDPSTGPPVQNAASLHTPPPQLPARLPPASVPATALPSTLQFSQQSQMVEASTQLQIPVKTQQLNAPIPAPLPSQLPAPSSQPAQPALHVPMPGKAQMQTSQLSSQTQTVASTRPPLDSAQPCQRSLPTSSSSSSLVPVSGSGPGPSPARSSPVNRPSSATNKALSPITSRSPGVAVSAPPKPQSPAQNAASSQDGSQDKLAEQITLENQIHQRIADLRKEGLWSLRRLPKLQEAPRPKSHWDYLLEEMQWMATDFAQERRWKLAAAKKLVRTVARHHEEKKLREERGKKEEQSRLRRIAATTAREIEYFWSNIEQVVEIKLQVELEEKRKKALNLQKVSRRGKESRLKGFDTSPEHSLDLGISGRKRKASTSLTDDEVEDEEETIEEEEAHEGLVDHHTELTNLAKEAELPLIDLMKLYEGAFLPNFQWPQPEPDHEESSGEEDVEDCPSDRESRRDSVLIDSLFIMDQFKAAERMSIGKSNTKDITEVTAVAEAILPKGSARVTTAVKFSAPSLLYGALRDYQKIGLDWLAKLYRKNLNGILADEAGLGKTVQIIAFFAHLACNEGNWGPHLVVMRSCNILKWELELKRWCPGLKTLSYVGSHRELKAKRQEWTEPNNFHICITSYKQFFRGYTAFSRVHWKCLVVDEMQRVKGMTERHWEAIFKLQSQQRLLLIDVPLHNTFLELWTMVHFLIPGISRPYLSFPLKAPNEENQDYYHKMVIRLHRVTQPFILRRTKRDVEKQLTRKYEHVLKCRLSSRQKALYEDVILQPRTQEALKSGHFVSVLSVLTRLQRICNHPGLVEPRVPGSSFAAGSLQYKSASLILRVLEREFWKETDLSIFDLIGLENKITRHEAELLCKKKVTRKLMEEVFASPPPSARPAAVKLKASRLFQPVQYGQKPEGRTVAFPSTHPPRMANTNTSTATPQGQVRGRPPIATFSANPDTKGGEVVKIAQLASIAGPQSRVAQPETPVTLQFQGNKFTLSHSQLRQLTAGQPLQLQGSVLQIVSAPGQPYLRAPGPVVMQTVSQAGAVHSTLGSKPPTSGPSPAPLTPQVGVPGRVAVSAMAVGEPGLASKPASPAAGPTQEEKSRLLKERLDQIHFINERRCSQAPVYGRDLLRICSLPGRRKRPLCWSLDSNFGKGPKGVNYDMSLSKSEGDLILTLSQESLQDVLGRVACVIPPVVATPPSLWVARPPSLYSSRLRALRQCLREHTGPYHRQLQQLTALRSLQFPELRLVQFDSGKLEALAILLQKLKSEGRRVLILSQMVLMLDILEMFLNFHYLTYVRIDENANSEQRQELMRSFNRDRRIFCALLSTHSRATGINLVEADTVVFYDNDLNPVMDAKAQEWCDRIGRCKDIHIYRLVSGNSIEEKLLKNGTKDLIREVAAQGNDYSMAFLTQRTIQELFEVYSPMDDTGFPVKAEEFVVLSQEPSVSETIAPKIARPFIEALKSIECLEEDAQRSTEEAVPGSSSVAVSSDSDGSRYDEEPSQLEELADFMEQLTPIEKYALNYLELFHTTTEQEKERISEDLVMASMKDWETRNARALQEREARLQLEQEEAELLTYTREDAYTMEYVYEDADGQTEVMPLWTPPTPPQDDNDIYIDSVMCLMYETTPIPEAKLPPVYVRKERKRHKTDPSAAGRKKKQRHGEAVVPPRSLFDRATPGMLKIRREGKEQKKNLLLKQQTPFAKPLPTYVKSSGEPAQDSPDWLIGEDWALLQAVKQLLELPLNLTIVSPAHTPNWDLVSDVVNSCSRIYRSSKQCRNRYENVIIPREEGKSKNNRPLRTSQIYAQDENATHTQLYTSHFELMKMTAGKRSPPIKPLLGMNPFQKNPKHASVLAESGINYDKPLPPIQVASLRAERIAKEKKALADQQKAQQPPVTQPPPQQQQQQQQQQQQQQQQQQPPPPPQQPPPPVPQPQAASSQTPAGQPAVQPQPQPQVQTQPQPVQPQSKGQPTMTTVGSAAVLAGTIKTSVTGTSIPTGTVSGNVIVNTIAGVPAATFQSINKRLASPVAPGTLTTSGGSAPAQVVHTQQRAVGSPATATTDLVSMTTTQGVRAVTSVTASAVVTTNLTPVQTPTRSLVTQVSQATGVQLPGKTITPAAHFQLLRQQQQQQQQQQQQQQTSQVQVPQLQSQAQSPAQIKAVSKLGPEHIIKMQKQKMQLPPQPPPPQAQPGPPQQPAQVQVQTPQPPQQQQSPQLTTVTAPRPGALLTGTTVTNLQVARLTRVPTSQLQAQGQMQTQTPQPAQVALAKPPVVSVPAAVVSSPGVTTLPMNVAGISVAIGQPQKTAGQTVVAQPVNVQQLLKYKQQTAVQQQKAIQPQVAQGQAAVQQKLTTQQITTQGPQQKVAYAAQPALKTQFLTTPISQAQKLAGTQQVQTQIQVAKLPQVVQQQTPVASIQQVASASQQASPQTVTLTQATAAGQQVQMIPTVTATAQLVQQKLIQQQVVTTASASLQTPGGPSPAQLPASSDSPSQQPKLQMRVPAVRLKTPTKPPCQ
UniProt Q8CE33: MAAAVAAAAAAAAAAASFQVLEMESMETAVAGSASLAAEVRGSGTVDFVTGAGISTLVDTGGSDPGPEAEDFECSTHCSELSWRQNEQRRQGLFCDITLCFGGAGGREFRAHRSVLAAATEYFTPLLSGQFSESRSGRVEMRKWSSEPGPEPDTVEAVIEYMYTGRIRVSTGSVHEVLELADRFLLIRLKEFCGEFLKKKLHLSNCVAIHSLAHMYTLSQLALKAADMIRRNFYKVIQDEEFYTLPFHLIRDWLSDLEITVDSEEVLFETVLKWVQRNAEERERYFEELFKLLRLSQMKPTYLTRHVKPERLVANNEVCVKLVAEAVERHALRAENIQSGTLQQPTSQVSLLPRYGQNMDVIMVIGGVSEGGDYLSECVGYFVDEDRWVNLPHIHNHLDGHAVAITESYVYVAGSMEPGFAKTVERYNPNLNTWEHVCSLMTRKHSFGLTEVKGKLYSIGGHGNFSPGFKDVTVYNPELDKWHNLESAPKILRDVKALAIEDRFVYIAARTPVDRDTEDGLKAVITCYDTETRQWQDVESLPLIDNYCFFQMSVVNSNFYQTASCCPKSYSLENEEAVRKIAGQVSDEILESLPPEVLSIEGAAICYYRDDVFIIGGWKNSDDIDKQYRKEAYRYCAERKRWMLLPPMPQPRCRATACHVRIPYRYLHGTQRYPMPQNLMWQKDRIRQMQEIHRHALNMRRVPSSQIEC

Target	log2 fold change
UniProt Q8CI71 (peptide sequence: LLAAIDEIDRPK, peptide start residue: 952)	0.297
UniProt Q8K0U4 (peptide sequence: FHSFGYAAR, peptide start residue: 111)	0.24
UniProt Q8CFD4 (peptide sequence: QMMSAAHGREPESVEQLESR, peptide start residue: 350)	-0.2
UniProt Q8JZZ6 (peptide sequence: APITSEFRK, peptide start residue: 260)	0.474
UniProt Q8CHI8 (peptide sequence: LGPEHIIK, peptide start residue: 2723)	0.26
UniProt Q8CE33 (peptide sequence: LVANNEVCVK, peptide start residue: 312)	0.163
UniProt Q8CIB5 (peptide sequence: INQLYEQAK, peptide start residue: 291)	-0.471
UniProt Q8CH02 (peptide sequence: MNMNILHQEELIAQK, peptide start residue: 28)	-0.167
UniProt Q8CID3 (peptide sequence: QLRPGERPAACPCSGR, peptide start residue: 34)	0.379
UniProt Q8CC12 (peptide sequence: ELQDSILALR, peptide start residue: 663)	-0.391
UniProt Q8CI33 (peptide sequence: NFPLQFGR, peptide start residue: 483)	0.0986
